Data source: PubChem BioAssay AID1259425 (University of Nebraska Medical Center, 2018)
This is a random part of about 14,000 reagents. The numbers tell different reagents against one gene apart. Further read-outs or replicates are left out here. Not given: the time to read-out.

Purpose: 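Compare each knockdown with KSR1 silencing using changes in marker transcripts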 (primary screen)
Cells: HCT116 human colon cancer cells
Reagents: siRNA pool against human genes, 50 nM siRNA
Measured: 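mRNA of six signature genes measured together by branched-DNA assay after 50 nM siRNA pool, blank removed, divided by geometric mean of two housekeeping genes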
Scale: BNIP3L mRNA: higher = more BNIP3L transcript after knockdown

gene symbol	pool no.	BNIP3L mRNA, set 1
PHB1 (prohibitin 1)	1	0.0999
NT5C (5', 3'-nucleotidase, cytosolic)	1	0.112
SGSM2 (small G protein signaling modulator 2)	1	0.16
FHIT (fragile histidine triad diadenosine triphosphatase)	1	0.1
HP1BP3 (heterochromatin protein 1 binding protein 3)	1	0.0795
CAMKK2 (calcium/calmodulin dependent protein kinase kinase 2)	1	0.0717
TIE1	1	0.12
GPS1 (G protein pathway suppressor 1)	1	0.0626
ST8SIA1 (ST8 alpha-N-acetyl-neuraminide alpha-2,8-sialyltransferase 1)	1	0.455
SCN10A (sodium voltage-gated channel alpha subunit 10)	1	0.113
FUT7 (fucosyltransferase 7)	1	0.157
RUNX1T1 (RUNX1 partner transcriptional co-repressor 1)	1	0.11
PRPF40B (pre-mRNA processing factor 40B)	1	0.0418
TNFRSF17 (TNF receptor superfamily member 17)	1	0.0825
PLEKHO1 (pleckstrin homology domain containing O1)	1	0.0356
C12orf43 (chromosome 12 open reading frame 43)	1	0.1
RPL13 (ribosomal protein L13)	1	0.442
GPSM1 (G protein signaling modulator 1)	1	0.146
CCDC134 (coiled-coil domain containing 134)	1	0.127
GART	1	0.151
ZNF273 (zinc finger protein 273)	1	0.0646
MROH9 (maestro heat like repeat family member 9)	1	0.0954
KRTAP4-4 (keratin associated protein 4-4)	1	0.123
MRPS23 (mitochondrial ribosomal protein S23)	1	0.224
MAPK14 (mitogen-activated protein kinase 14)	1	0.0842
LAMB3 (laminin subunit beta 3)	1	0.346

In a second layout: 4 of the entries above
{"gene symbol":"C12orf43 (chromosome 12 open reading frame 43)","pool no.":1,"BNIP3L mRNA, set 1":0.1}
{"gene symbol":"RPL13 (ribosomal protein L13)","pool no.":1,"BNIP3L mRNA, set 1":0.442}
{"gene symbol":"GPSM1 (G protein signaling modulator 1)","pool no.":1,"BNIP3L mRNA, set 1":0.146}
{"gene symbol":"CCDC134 (coiled-coil domain containing 134)","pool no.":1,"BNIP3L mRNA, set 1":0.127}

Continued:
gene symbol	pool no.	BNIP3L mRNA, set 1
H2BC17 (H2B clustered histone 17)	1	0.0925
EMD (emerin)	1	0.11
HNF4G (hepatocyte nuclear factor 4 gamma)	1	0.0859
TSPYL2 (TSPY like 2)	1	0.115
HSAJ2425 (retired record)	1	0.0808
PSMD11 (proteasome 26S subunit, non-ATPase 11)	1	0.154
UBE3C (ubiquitin protein ligase E3C)	1	0.098
ARF6 (ARF GTPase 6)	1	0.15
IGHG3 (immunoglobulin heavy constant gamma 3 (G3m marker))	1	0.0408
HBA2 (hemoglobin subunit alpha 2)	1	0.169
SLC30A2	1	0.0827
SDF4 (stromal cell derived factor 4)	1	0.083
AGT (angiotensinogen)	1	0.044
TMPRSS4 (transmembrane serine protease 4)	1	0.249
ADAM23 (ADAM metallopeptidase domain 23)	1	0.0939
DENND4A (DENN domain containing 4A)	1	0.0894
NR5A2 (nuclear receptor subfamily 5 group A member 2)	1	0.109
PDIA4 (protein disulfide isomerase family A member 4)	1	0.0487
RAD54B (RAD54 homolog B)	1	0.0928
RAD54B (RAD54 homolog B)	2	0.0583
COPS6 (COP9 signalosome subunit 6)	1	0.164
HS3ST3A1 (heparan sulfate-glucosamine 3-sulfotransferase 3A1)	1	0.164
ZNF613 (zinc finger protein 613)	1	0.0616
NCAM2 (neural cell adhesion molecule 2)	1	0.0716
